Data as given in PubChem BioAssay AID720505 (Drosophila RNAi Screening Center, 2013)
The screen tested about 20,000 reagents; below is a random part of those with a known target gene and a result. Of all reagents, about 2,100 (10%) got an active call. 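Raw plate signals without normalisation; calls rest on control-based scores that were not deposited; replicate 2 separates called from uncalled poorly.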 A plus sign joins genes that one reagent is predicted to hit. No sequences are given here. The record does not give: the amount of reagent, the time to read-out.

Screen: 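Knock-downs that reduce calcium influx once internal stores are emptied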 (primary screen)
Cell system: Drosophila S2R+ cells
Reagents: long dsRNA against Drosophila genes
Treatment: thapsigargin (2 µM) in calcium-free buffer to empty internal stores, then 2 mM calcium added back
Measured: 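Stores emptied by 2 µM thapsigargin without calcium, then 2 mM calcium re-added; fluo-4 fluorescence followed by FLIPR in 384-well plates, per-well averaged endpoint, raw; two screen passes, some wells retested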
Direction: calcium signal and retest calcium signal: higher = more calcium entry after store depletion
Hit rule: 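About 1500 genes called as lowering calcium entry, by varying amounts, judged against per-plate control wells with STIM1 as positive and Rho1 as negative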
Meaning of the calls: active = called as lowering calcium entry; inactive = not called

CG32633 [DRSC18987] gave calcium signal, replicate 1 = 92.5; calcium signal, replicate 2 = 67.7; inactive. Against PDCD-5 [DRSC09955], the values are calcium signal, replicate 1 = 92.9; calcium signal, replicate 2 = 221; inactive. dgo [DRSC06134] scored calcium signal, replicate 1 = 156; calcium signal, replicate 2 = 114; inactive. Against Adck5 [DRSC10890], the entry reads calcium signal, replicate 1 = 123; calcium signal, replicate 2 = 100; inactive. For CR11386 + CR33222 [DRSC17781], the values are calcium signal, replicate 1 = 116; calcium signal, replicate 2 = 121; inactive. CG13144 [DRSC02241] gave calcium signal, replicate 1 = 165; calcium signal, replicate 2 = 132; inactive.

After knock-down of CR33013 [DRSC06286] the results were calcium signal, replicate 1 = 150; calcium signal, replicate 2 = 223; inactive. After knock-down of Als2 [DRSC11806] the results were calcium signal, replicate 1 = 136; calcium signal, replicate 2 = 103; inactive. After knock-down of lncRNA:CR43242 [DRSC03827], the record shows calcium signal, replicate 1 = 167; calcium signal, replicate 2 = 80.8; inactive. For RpS28b [DRSC18258], the entry reads calcium signal, replicate 1 = 147; calcium signal, replicate 2 = 52; active. Depletion of Nph [DRSC16342] came out at: calcium signal, replicate 1 = 176; calcium signal, replicate 2 = 119; inactive. With knock-down of CG31933 [DRSC00457], the screen gave calcium signal, replicate 1 = 226; calcium signal, replicate 2 = 170; inactive.

CG14354 [DRSC14817] showed calcium signal, replicate 1 = 155; calcium signal, replicate 2 = 149; inactive. Depletion of Fst [DRSC16491] came out at: calcium signal, replicate 1 = 122; calcium signal, replicate 2 = 115; inactive. CG17612 [DRSC00505] scored calcium signal, replicate 1 = 131; calcium signal, replicate 2 = 248; inactive. Depletion of nAChRalpha5 [DRSC01360] came out at: calcium signal, replicate 1 = 64.3; calcium signal, replicate 2 = 78.6; active. With knock-down of nAChRalpha5 [DRSC01946], the screen gave calcium signal, replicate 1 = 128; calcium signal, replicate 2 = 138; inactive. nAChRalpha5 [DRSC01947] showed calcium signal, replicate 1 = 113; calcium signal, replicate 2 = 159; retest calcium signal, replicate 1 = 101; retest calcium signal, replicate 2 = 101; inactive.

After knock-down of nAChRalpha5 [DRSC22785], the record shows calcium signal, replicate 1 = 109; calcium signal, replicate 2 = 153; inactive. Csas [DRSC22390] gave calcium signal, replicate 1 = 118; calcium signal, replicate 2 = 100; inactive. Knock-down of Dpit47 [DRSC04985] resulted in: calcium signal, replicate 1 = 115; calcium signal, replicate 2 = 165; inactive. With knock-down of Obp22a [DRSC00088], the record shows calcium signal, replicate 1 = 72.1; calcium signal, replicate 2 = 141; inactive. Nrx-IV [DRSC11238] scored calcium signal, replicate 1 = 93.5; calcium signal, replicate 2 = 83.6; inactive. Depletion of Ntf-2 [DRSC20552] gave: calcium signal, replicate 1 = 235; calcium signal, replicate 2 = 109; inactive.

For Spn [DRSC08490] the deposit lists calcium signal, replicate 1 = 164; calcium signal, replicate 2 = 141; inactive. Against Spn [DRSC08491] the deposit lists calcium signal, replicate 1 = 53.8; calcium signal, replicate 2 = 90.6; active. Silencing of dgrn [DRSC12154] gave: calcium signal, replicate 1 = 146; calcium signal, replicate 2 = 142; inactive. lncRNA:CR9284 [DRSC03899] gave calcium signal, replicate 1 = 95.8; calcium signal, replicate 2 = 7752; inactive. lncRNA:CR9284 [DRSC04536] showed calcium signal, replicate 1 = 149; calcium signal, replicate 2 = 113; inactive.
